{"source": "PubChem BioAssay AID1508597 (Cure First, 2020)", "purpose": "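Genes whose silencing sensitises or protects ovarian cancer cells against rucaparib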 (primary screen)", "system": "human ovarian carcinoma lines grown from tumours: OCI-P5x (papillary serous) and OCI-C5x (clear cell)", "reagent": "siRNA pool against human genes, 1.25 pmol siRNA per well", "time to read-out": "72 h or 96 h, depending on the cell culture", "treatment": "rucaparib 20 µM (about IC30) or vehicle, present until read-out", "rucaparib or vehicle": "Vehicle", "cell line": "OCI-P5x (serous)", "read-out": "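Luminescent ATP-based viability assay read 72 or 96 h after transfection, depending on culture, given as normalised percent viability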", "scale": "viability, normalised: higher = more viable cells remaining", "hit rule": "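a well counts as a hit if its normalised viability is under 80 percent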", "meaning of the calls": "active = viability under 80%; inactive = viability 80% or more", "note": "Shown is a random part of the about 2,100 reagents, under one of the conditions tested. 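Calls flag viability under 80% in either arm, not effects specific to rucaparib; the reference for percent is not stated.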 Entries without a mark were called inactive. A reagent listed more than once was tested more than once; the source does not tell the runs apart. Not stated in the record: the 100% reference."}
{"gene knocked down":"LMNA (lamin A/C)","PubChem SID":"SID405528264","technical replicate":"1","viability, normalised (%)":109}
{"gene knocked down":"LMNA (lamin A/C)","PubChem SID":"SID405528264","technical replicate":"2","viability, normalised (%)":"66.3 (active)"}
{"gene knocked down":"LMNA (lamin A/C)","PubChem SID":"SID405528264","technical replicate":"3","viability, normalised (%)":95.9}
{"gene knocked down":"PRKCB (protein kinase C beta)","PubChem SID":"SID405527197","technical replicate":"1","viability, normalised (%)":"50.1 (active)"}
{"gene knocked down":"PRKCB (protein kinase C beta)","PubChem SID":"SID405527197","technical replicate":"1","viability, normalised (%)":88.2}
{"gene knocked down":"PRKCB (protein kinase C beta)","PubChem SID":"SID405527197","technical replicate":"2","viability, normalised (%)":"72.5 (active)"}
{"gene knocked down":"PRKCB (protein kinase C beta)","PubChem SID":"SID405527197","technical replicate":"2","viability, normalised (%)":"47.6 (active)"}
{"gene knocked down":"PRKCB (protein kinase C beta)","PubChem SID":"SID405527197","technical replicate":"3","viability, normalised (%)":84.7}
{"gene knocked down":"PRKCB (protein kinase C beta)","PubChem SID":"SID405527197","technical replicate":"3","viability, normalised (%)":84.5}
{"gene knocked down":"DYRK1A","PubChem SID":"SID405527866","technical replicate":"1","viability, normalised (%)":82.9}
{"gene knocked down":"DYRK1A","PubChem SID":"SID405527866","technical replicate":"2","viability, normalised (%)":81.6}
{"gene knocked down":"DYRK1A","PubChem SID":"SID405527866","technical replicate":"3","viability, normalised (%)":"45.8 (active)"}
{"gene knocked down":"AMELX (amelogenin X-linked)","PubChem SID":"SID405527964","technical replicate":"1","viability, normalised (%)":"54.7 (active)"}
{"gene knocked down":"AMELX (amelogenin X-linked)","PubChem SID":"SID405527964","technical replicate":"2","viability, normalised (%)":"54.7 (active)"}
{"gene knocked down":"AMELX (amelogenin X-linked)","PubChem SID":"SID405527964","technical replicate":"3","viability, normalised (%)":"58.7 (active)"}
{"gene knocked down":"LATS2 (large tumor suppressor kinase 2)","PubChem SID":"SID405527779","technical replicate":"1","viability, normalised (%)":83.8}
{"gene knocked down":"LATS2 (large tumor suppressor kinase 2)","PubChem SID":"SID405527779","technical replicate":"2","viability, normalised (%)":"68.9 (active)"}
{"gene knocked down":"LATS2 (large tumor suppressor kinase 2)","PubChem SID":"SID405527779","technical replicate":"3","viability, normalised (%)":81.6}
{"gene knocked down":"GTF2H4 (general transcription factor IIH subunit 4)","PubChem SID":"SID405526472","technical replicate":"1","viability, normalised (%)":"51.8 (active)"}
{"gene knocked down":"GTF2H4 (general transcription factor IIH subunit 4)","PubChem SID":"SID405526472","technical replicate":"1","viability, normalised (%)":"52.5 (active)"}
{"gene knocked down":"GTF2H4 (general transcription factor IIH subunit 4)","PubChem SID":"SID405526472","technical replicate":"2","viability, normalised (%)":"48.3 (active)"}
{"gene knocked down":"GTF2H4 (general transcription factor IIH subunit 4)","PubChem SID":"SID405526472","technical replicate":"2","viability, normalised (%)":"62.5 (active)"}
{"gene knocked down":"GTF2H4 (general transcription factor IIH subunit 4)","PubChem SID":"SID405526472","technical replicate":"3","viability, normalised (%)":"52 (active)"}
{"gene knocked down":"GTF2H4 (general transcription factor IIH subunit 4)","PubChem SID":"SID405526472","technical replicate":"3","viability, normalised (%)":"52.5 (active)"}
{"gene knocked down":"EVI5L (ecotropic viral integration site 5 like)","PubChem SID":"SID405527642","technical replicate":"1","viability, normalised (%)":86.3}
{"gene knocked down":"EVI5L (ecotropic viral integration site 5 like)","PubChem SID":"SID405527642","technical replicate":"2","viability, normalised (%)":83.7}
{"gene knocked down":"EVI5L (ecotropic viral integration site 5 like)","PubChem SID":"SID405527642","technical replicate":"3","viability, normalised (%)":"51.8 (active)"}
{"gene knocked down":"MAPK14 (mitogen-activated protein kinase 14)","PubChem SID":"SID405527620","technical replicate":"1","viability, normalised (%)":93}
{"gene knocked down":"MAPK14 (mitogen-activated protein kinase 14)","PubChem SID":"SID405527620","technical replicate":"2","viability, normalised (%)":89.1}
{"gene knocked down":"MAPK14 (mitogen-activated protein kinase 14)","PubChem SID":"SID405527620","technical replicate":"3","viability, normalised (%)":85.7}
{"gene knocked down":"NR1H3 (nuclear receptor subfamily 1 group H member 3)","PubChem SID":"SID405526387","technical replicate":"1","viability, normalised (%)":"59.6 (active)"}
{"gene knocked down":"NR1H3 (nuclear receptor subfamily 1 group H member 3)","PubChem SID":"SID405526387","technical replicate":"2","viability, normalised (%)":89.2}
{"gene knocked down":"NR1H3 (nuclear receptor subfamily 1 group H member 3)","PubChem SID":"SID405526387","technical replicate":"3","viability, normalised (%)":83.6}

Ordered by “viability, normalised (%)” (ascending): 5 of the entries above.
{"gene knocked down":"GTF2H4 (general transcription factor IIH subunit 4)","PubChem SID":"SID405526472","technical replicate":"2","viability, normalised (%)":"48.3 (active)"}
{"gene knocked down":"GTF2H4 (general transcription factor IIH subunit 4)","PubChem SID":"SID405526472","technical replicate":"1","viability, normalised (%)":"51.8 (active)"}
{"gene knocked down":"GTF2H4 (general transcription factor IIH subunit 4)","PubChem SID":"SID405526472","technical replicate":"3","viability, normalised (%)":"52 (active)"}
{"gene knocked down":"GTF2H4 (general transcription factor IIH subunit 4)","PubChem SID":"SID405526472","technical replicate":"1","viability, normalised (%)":"52.5 (active)"}
{"gene knocked down":"GTF2H4 (general transcription factor IIH subunit 4)","PubChem SID":"SID405526472","technical replicate":"2","viability, normalised (%)":"62.5 (active)"}
